This is an account of results in patent US20180009899A1 (CORVUS PHARMACEUTICALS, published 2018).

No constants are given. Whether binding was seen depends on the method and setting. Some results given as binding are weak or reduced against the parent protein; the word gives no strength.

The target in the assay is T1, Cellular CD73 on MDA-MB-231 human breast cancer cells (human) (UniProt P21589).
T1 sequence (looked up): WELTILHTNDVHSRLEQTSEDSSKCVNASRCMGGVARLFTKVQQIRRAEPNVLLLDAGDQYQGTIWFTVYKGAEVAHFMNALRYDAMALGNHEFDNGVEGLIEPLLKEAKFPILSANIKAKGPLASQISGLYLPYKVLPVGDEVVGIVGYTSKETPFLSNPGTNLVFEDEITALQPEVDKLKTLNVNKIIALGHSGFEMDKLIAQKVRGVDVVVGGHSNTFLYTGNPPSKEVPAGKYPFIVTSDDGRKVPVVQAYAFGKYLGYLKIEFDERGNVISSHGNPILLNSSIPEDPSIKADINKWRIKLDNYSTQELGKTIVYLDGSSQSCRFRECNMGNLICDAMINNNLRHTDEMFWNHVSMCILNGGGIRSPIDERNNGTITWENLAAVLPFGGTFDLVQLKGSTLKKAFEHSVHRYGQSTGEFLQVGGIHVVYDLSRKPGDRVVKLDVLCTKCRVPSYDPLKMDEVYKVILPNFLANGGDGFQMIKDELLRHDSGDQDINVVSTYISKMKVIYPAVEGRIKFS
Nature of the assay: flow cytometry on MDA-MB-231 cells, PE anti-human secondary. On the technique in general: In flow cytometry, cells or beads pass a laser one at a time.

B1: CPX-006 deglycosylated enzymatically with PNGase F (antibody, human IgG1, kappa, N297Q, V domains shown)
VH: QVQLVQSGAEVEKPGASVKVSCKASGYTFTSYWITWVRQAPGQGLEWMGDIYPGSGNTNYNEKFKTRVTITADKSTSTAYMELSSLRSEDTAVYYCAKEGGLTTEDYALDYWGQGTLVTVSS
VL: EIVLTQSPATLSLSPGERATLSCRASKNVSTSGYSYMHWYQQKPGQAPRLLIYLASNLESGIPPRFSGSGYGTDFTLTINNIESEDAAYYFCQHSRELPFTFGQGTKVEIKR
modifications: N-linked glycan on CDR L1 removed with PNGase F
B1: the binding result is “binds”.
